Source: PubChem BioAssay AID212 (DTP/NCI, 2004)
The list does not hold the whole screen: it is rich in T/C values a quarter to a half above the control, in often repeated tests (any T/C) and in doses without a T/C. Further doses and runs are listed elsewhere. T/C gives the treated animals as a percentage of the vehicle group. Schedule codes are those of the source, taken here to give the interval after Q, in days (D) or hours (H), and the number of doses after X. Some T/C values carry the count of animals alive at the toxicity check (mostly the fifth day); without a count, all were alive then. Some doses were run more than once; the values are given in rising order. Some doses have a count of surviving animals in place of a T/C: the source holds a T/C of zero for them, seemingly a mark for toxic or unscored doses. Survivors were counted at the toxicity check, usually on the fifth day, unless a day is given; later deaths do not show.

System: BDF1 mice, colon carcinoma 38 sc, T/C %
Test: NCI In Vivo Anticancer Drug Screen. Data for tumor model Colon Carcinoma 38 (subcutaneous) in B6D2F1 (BDF1) mice
Conditions: T/C endpoint: median tumor weight (est.), higher T/C = larger tumour; for T/C: evaluated on day 20
Method in brief: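 Compound antitumor activity was assessed in mice carrying transplantable tumors. Survival or tumor size was recorded, and each value is the treated-group measurement divided by that of the vehicle-treated control group.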

[1] = dose: 100.0 mg/kg/injection, schedule: Q07DX002 (ip), vehicle: saline with Tween-80
[2] = dose: 200.0 mg/kg/injection, schedule: Q07DX002 (ip), vehicle: saline with Tween-80
[3] = dose: 400.0 mg/kg/injection, schedule: Q07DX002 (ip), vehicle: saline with Tween-80
[4] = dose: 2.0 mg/kg/injection, schedule: Q07DX002 (ip), vehicle: saline
[5] = dose: 10.0 mg/kg/injection, schedule: Q07DX002 (ip), vehicle: Klucel (hydroxypropylcellulose) (HPC)
[6] = dose: 40.0 mg/kg/injection, schedule: Q07DX002 (ip), vehicle: Klucel (hydroxypropylcellulose) (HPC)
[7] = dose: 100.0 mg/kg/injection, schedule: Q07DX002 (ip), vehicle: Klucel (hydroxypropylcellulose) (HPC)
[8] = dose: 80.0 mg/kg/injection, schedule: Q07DX002 (ip), vehicle: Klucel (hydroxypropylcellulose) (HPC)

CCC(C(=O)O)C(=O)O.[NH2-].[NH2-].[Pt+2]
survivor count (dose: 400.0 mg/kg/injection, schedule: Q07DX002 (ip), vehicle: saline): 1 of 10 on day 20

CCOC(=O)C(CC(C)C)NC(=O)C(Cc1ccc(N(CCCl)CCCl)cc1)NC(C)=O (stereo not given)
survivor count (dose: 128.0 mg/kg/injection, schedule: Q07DX002 (ip), vehicle: saline with Tween-80): 5 of 10 | survivor count (dose: 256.0 mg/kg/injection, schedule: Q07DX003 (ip), vehicle: saline with Tween-80): 6 of 10

CC(=O)Nc1ccc(Nc2ccc(C(=C3C=CC(=[N+](C)CCC#N)C=C3)c3ccc(N(C)CCC#N)cc3)cc2)cc1
survivor count [1]: 4 of 10 on day 20 | survivor count [2]: 0 of 10 on day 20 | survivor count [3]: 0 of 10 on day 20 | survivor count (dose: 800.0 mg/kg/injection, schedule: Q07DX002 (ip), vehicle: saline with Tween-80): 0 of 10 on day 20

COCC1OC2OC3C(COC)OC(OC4C(COC)OC(OC5C(COC)OC(OC6C(COC)OC(OC7C(COC)OC(OC8C(COC)OC(OC1C(O)C2O)C(O)C8O)C(O)C7O)C(O)C6O)C(O)C5O)C(O)C4O)C(O)C3O (stereo not given) (tested in a mixture with another compound)
survivor count (dose: 800.0 mg/kg/injection, schedule: Q07DX002 (ip), vehicle: Klucel (hydroxypropylcellulose) (HPC)): 5 of 10 on day 20

O=C1C(NCCO)=C(N2CC2)C(=O)C(NCCO)=C1N1CC1
T/C (dose: 0.25 mg/kg/injection, schedule: Q07DX002 (ip), vehicle: saline): 142 % of control [9 of 10 alive on day 20] | survivor count [4]: 0 of 10 on day 20 and 5 of 10 on day 20 | survivor count (dose: 4.0 mg/kg/injection, schedule: Q07DX002 (ip), vehicle: saline): 0 of 10 on day 20

O=C(O[Si](Cc1ccccc1)(Cc1ccccc1)Cc1ccccc1)N(CCCl)CCCl
survivor count [1]: 6 of 10 on day 20 | survivor count [2]: 0 of 10 on day 20 | survivor count [3]: 0 of 10 on day 20

C[CH2][Ge]([CH2]C)[CH2]C.C[CH2][Ge]([CH2]C)[CH2]C.C[CH2][Ge]([CH2]C)[O][Ge]([CH2]C)[CH2]C
T/C [1]: 126 % of control | survivor count (dose: 1600.0 mg/kg/injection, schedule: Q07DX002 (ip), vehicle: saline with Tween-80): 0 of 10 on day 20

CSCS(=O)C[C@H](CO)NC(=O)/C=C/c1c(C)[nH]c(=O)[nH]c1=O (stereo not given in full)
T/C (dose: 0.12 mg/kg/injection, schedule: Q07DX002 (ip), vehicle: saline): 128 and 144 % of control | T/C [4]: 125 % of control

[CH3][Sn]([CH3])([Cl])[S]CCN
survivor count (dose: 100.0 mg/kg/injection, schedule: Q07DX002 (ip), vehicle: saline): 2 of 10 on day 20 | survivor count (dose: 200.0 mg/kg/injection, schedule: Q07DX002 (ip), vehicle: saline): 0 of 10 on day 20

Nc1nc2n[nH]nc2c(=O)[nH]1
survivor count (dose: 800.0 mg/kg/injection, schedule: Q07DX002 (ip), vehicle: suspension in saline): 2 of 10 on day 20

CC1(C)CC23C4COC(=O)C2CCC1C3CC4=O (stereo not given)
T/C (dose: 12.5 mg/kg/injection, schedule: Q07DX002 (ip), vehicle: DMSO): 136 [9 of 10 alive on day 20] and 145 % of control | survivor count (dose: 200.0 mg/kg/injection, schedule: Q07DX002 (ip), vehicle: DMSO): 0 of 10 on day 20

C=C(C)C(=O)OC1C/C(CO)=C\C(O)C/C(C)=C/C2OC(=O)C(=C)C21 (stereo not given)
T/C (dose: 10.0 mg/kg/injection, schedule: Q07DX002 (ip), vehicle: saline + alcohol): 134 % of control | survivor count (dose: 80.0 mg/kg/injection, schedule: Q07DX002 (ip), vehicle: saline + alcohol): 3 of 10 on day 20

COc1cc2cc(c1Cl)N(C)C(=O)CC(OC(=O)CC(C)C)C1(C)OC1C(C)C1CC(O)(NC(=O)O1)C(OC)/C=C/C=C(C)C2 (stereo not given)
T/C (dose: 12.5 micrograms/kg/injection, schedule: Q07DX003 (ip), vehicle: saline + alcohol): 149 % of control | T/C (dose: 50.0 micrograms/kg/injection, schedule: Q07DX003 (ip), vehicle: saline + alcohol): 141 % of control [8 of 10 alive]

OCCOCC(F)(F)F
T/C (dose: 25.0 mg/kg/injection, schedule: Q07DX002 (ip), vehicle: saline with Tween-80): 131 % of control

C=C(C)C1C2CC3(C)C4(CO4)C4OC4C3(O)C1C(=O)O2 (stereo not given)
T/C (dose: 3.0 mg/kg/injection, schedule: Q07DX002 (ip), vehicle: Klucel (hydroxypropylcellulose) (HPC)): 127 % of control [7 of 10 alive on day 20] | survivor count (dose: 6.0 mg/kg/injection, schedule: Q07DX002 (ip), vehicle: Klucel (hydroxypropylcellulose) (HPC)): 0 of 10 on day 20

CCOC(=O)C(N)CSC(=O)NC (stereo not given)
survivor count (dose: 1000.0 mg/kg/injection, schedule: Q07DX002 (ip), vehicle: saline): 2 of 10 on day 20

CCc1nc(N)nc(N)c1-c1ccc(Cl)c(N=[N+]=[N-])c1
survivor count (dose: 800.0 mg/kg/injection, schedule: Q07DX002 (ip), vehicle: distilled water + Tween-80): 6 of 10 on day 20

O=C1C=CC(=O)N1c1ccc(Cl)cc1
T/C [5]: 139 % of control | survivor count [6]: 0 of 10 on day 20

CN(C(=S)S(=O)(=O)C12CC3CC(CC(C3)C1)C2)c1ccccc1
T/C [7]: 148 % of control [9 of 10 alive on day 20]

O=NN(CCCl)C(=O)NC1CCCCC1
T/C (dose: 3.12 mg/kg/injection, schedule: Q07DX002 (ip), vehicle: Klucel (hydroxypropylcellulose) (HPC)): 127 % of control | T/C (dose: 5.0 mg/kg/injection, schedule: Q07DX003 (ip), vehicle: Klucel (hydroxypropylcellulose) (HPC)): 139 % of control | T/C [5]: 16, 38, 48, 57, 58, 63, 73, 74, 76, 77, 89 [9 of 10 alive on day 20], 94, 99 [9 of 10 alive on day 20], 106 % of control | T/C (dose: 20.0 mg/kg/injection, schedule: Q07DX002 (ip), vehicle: Klucel (hydroxypropylcellulose) (HPC)): 24, 26, 30, 36, 46, 51 [9 of 10 alive on day 20], 58, 59 [9 of 10 alive on day 20], 63, 68, 69, 70, 83, 123 % of control | T/C [6]: 2 [9 of 10 alive on day 20], 16, 19 [9 of 10 alive on day 20], 21, 37, 44, 56, 69 [8 of 10 alive on day 20], 76 % of control [9 of 10 alive on day 20] | survivor count [6]: 3 of 10 on day 20 and 6 of 10 on day 20 | survivor count (dose: 50.0 mg/kg/injection, schedule: Q07DX002 (ip), vehicle: Klucel (hydroxypropylcellulose) (HPC)): 4 of 10 on day 20 | T/C [8]: 14, 19 [7 of 10 alive on day 20], 22 [9 of 10 alive on day 20], 65, 67 % of control | survivor count [8]: 1 of 10 on day 20, 2 of 10 on day 20, 3 of 10 on day 20, 4 of 10 on day 20, 6 of 10 on day 20 | survivor count [7]: 1 of 10 on day 20 | survivor count (dose: 160.0 mg/kg/injection, schedule: Q07DX002 (ip), vehicle: Klucel (hydroxypropylcellulose) (HPC)): 0 of 10 on day 20, 1 of 10 on day 20, 4 of 10 on day 20, 4 of 9 on day 20, 5 of 10 on day 20

C[C@H](N)C(=O)N[C@@H]1[C@H]2C(=C(O)C[C@@H](O)[C@@H]2O)C(=O)O[C@@H]1C
T/C (dose: 75.0 mg/kg/injection, schedule: Q07DX002 (ip), vehicle: saline): 132 % of control | T/C (dose: 600.0 mg/kg/injection, schedule: Q07DX002 (ip), vehicle: saline): 147 % of control [9 of 10 alive on day 20]

C[C@@H]1C[C@H]2[C@@H]3CCC4=CC(=O)C=C[C@]4(C)[C@@]3(F)[C@@H](O)C[C@]2(C)[C@@]1(O)C(=O)CO
T/C (dose: 6.25 mg/kg/injection, schedule: Q07DX002 (ip), vehicle: Klucel (hydroxypropylcellulose) (HPC)): 133 % of control

COC(=Nc1ccccc1)SSC(C)C
T/C (dose: 12.5 mg/kg/injection, schedule: Q07DX002 (ip), vehicle: saline with Tween-80): 126 % of control
